The list shows a part of the results. Shown are side measurements of this screen, not its main read-out; they come without a call. The list favours compounds with an active or inconclusive main result. Words in brackets tell the shape of the fitted curve; partial curves, single points and poor fits give uncertain potencies.
Assay: qHTS Assay for Identifying the Cell-Membrane Permeable IMPase Inhibitors
Details: CHO-M1 cells, IP1 accumulation, HTRF TR-FRET ratio; measured here: donor channel 620 nm AC50
With `O=C(Nc1nc2ccccc2n1CCN1CCOCC1)c1cn(-c2ccccc2)nc1-c1ccccc1` the AC50 was 0.00501 µM [rising, full curve, poor fit].
For `Cc1cc(C)cc(N(CC(=O)NCC2CCCO2)C(=O)CN2C(=O)COc3ccccc32)c1` (centres undefined), the AC50 was 2 µM [falling, full curve, poor fit].
With `CC1CN(C(=O)CCc2ccccc2)C(C)CN1C(=O)CCc1ccccc1` (centres undefined) the AC50 was 12.6 µM [rising, partial curve, poor fit].
With `O=C(Nc1ccc2oc(-c3ccccc3)nc2c1)c1cccs1` the AC50 was 0.2 µM [falling, full curve].
For `Cc1nc2scc(-c3cccs3)c2c(=O)o1`, the AC50 was 0.0501 µM [falling, full curve].
With `Cc1ccc(-c2cc(-c3ccccc3)c(C#N)c(Br)n2)cc1` the AC50 was 22.4 µM [rising, partial curve].
In the case of `O=C(CSc1nnc(-c2ccccc2)o1)N1CCN(c2ccccc2)CC1`, the AC50 is reported as 3.16 µM [rising, single point].
With `Cc1ccc(S(N)(=O)=O)cc1NC(=O)/C=C/c1cccs1` the AC50 was 31.6 µM [falling, single point].
In the case of `O=C(N/N=C/c1ccc(O)cc1)c1ccc(NC(=O)c2ccccc2Br)cc1`, the AC50 is reported as 2.51 µM [falling, single point].
With `CCn1c2c(c3cc(Br)ccc31)CCC/C2=N\O` the AC50 was 12.6 µM [rising, partial curve].
In the case of `COC(=O)C1=C(C)NC(C)=C([N+](=O)[O-])[C@H]1c1ccccc1C(F)(F)F`, the AC50 is reported as 0.00251 µM [falling, full curve, poor fit].
In the case of `CCOc1ccccc1CNC(=O)C1CCC(=O)N1C(C)C` (centres undefined), the AC50 is reported as 0.631 µM [rising, single point].
With `CCOc1ccc(-c2cn(CCC#N)cn2)cc1` the AC50 was 0.01 µM [rising, full curve, poor fit].
With `CCOc1cccc(NC(=O)CSc2ncc(-c3ccccc3)[nH]2)c1` the AC50 was 0.00316 µM [rising, full curve, poor fit].
In the case of `CCOC(=O)c1c(C)[nH]c(=S)c(C#N)c1-c1ccc(OC)cc1`, the AC50 is reported as 0.126 µM [falling, full curve, poor fit].
In the case of `O=C(Cn1ncc2c3ccccc3n(Cc3ccccc3)c2c1=O)N1CCN(c2ncccn2)CC1`, the AC50 is reported as 1.58 µM [falling, full curve, poor fit].
For `COc1ccc(Cl)cc1-c1n[nH]c(=S)o1`, the AC50 was 12.6 µM [rising, partial curve].
With `C=CCN(CC=C)S(=O)(=O)c1ccc(NC(=S)NC(=O)/C=C/c2ccccc2)cc1` the AC50 was 0.794 µM [rising, single point].
In the case of `Cc1oc(-c2ccccc2F)nc1CS(=O)(=O)CC(=O)N1CCOCC1`, the AC50 is reported as 35.5 µM [rising, single point].
For `CCOC(=O)N1CCN(C(=O)C2CCCN(S(=O)(=O)c3cc(C)ccc3OC)C2)CC1` (centres undefined), the AC50 was 0.0355 µM [falling, full curve, poor fit].
In the case of `O=c1oc(-c2ccccc2)nc2c1cnn2-c1ccccc1`, the AC50 is reported as 1.12 µM [falling, full curve].
In the case of `Cc1nn(Cc2ccccc2Cl)c(C)c1NC(=O)CCCn1nc([N+](=O)[O-])c(Cl)c1C`, the AC50 is reported as 0.2 µM [falling, full curve, poor fit].
With `Cc1ccc(OCC(=O)NC(=S)Nc2ccc(Br)c(C)n2)cc1` the AC50 was 0.398 µM [falling, full curve, poor fit].
For `O=C(CN1C2=NCCN2c2ccccc21)N1CCOCC1`, the AC50 was 0.251 µM [falling, full curve, poor fit].
In the case of `Cc1ccc(S(=O)(=O)NCC(=O)OCC(=O)c2ccc(Br)s2)cc1`, the AC50 is reported as 15.8 µM [rising, partial curve].
In the case of `OCCN(CCO)CC(O)COCCC12CC3CC(CC(C3)C1)C2` (centres undefined), the AC50 is reported as 12.6 µM [falling, partial curve, poor fit].
In the case of `CCCCn1c(SCC(=O)Nc2cc(C)[nH]n2)nc2ccsc2c1=O`, the AC50 is reported as 6.31 µM [rising, single point].
For `O=C(CSc1ccc2nnc(-c3ccc(Cl)cc3)n2n1)N1CCCc2ccccc21`, the AC50 was 15.8 µM [rising, partial curve].
With `CC(=O)N=c1sc2nc3ccccc3nc2n1N(C(C)=O)C(C)=O` the AC50 was 10 µM [rising, partial curve].
In the case of `O=C1c2cnc3nc(SCc4ccc(Cl)cc4)nn3c2CC2c3ccccc3CCN12` (centres undefined), the AC50 is reported as 0.02 µM [rising, full curve, poor fit].
With `Cc1cccc(N2CN=c3s/c(=C\c4ccncc4)c(=O)n3C2)c1` the AC50 was 10 µM [falling, partial curve].
With `Cc1cc(NC(=O)CSc2nc3c(c(=O)n(C)c(=O)n3C)n2C(C)C)no1` the AC50 was 0.00316 µM [falling, full curve, poor fit].
With `CCOC(=O)c1ccc(NC(=O)Cn2cc(C(=O)c3cccs3)c3ccccc32)cc1` the AC50 was 0.251 µM [falling, full curve, poor fit].
In the case of `O=c1oc2c(O)c(O)cc3c(=O)oc4c(O)c(O)cc1c4c23`, the AC50 is reported as 15.8 µM [falling, partial curve].
For `COc1ccc(NC(=O)CN2CCC3(O)CCCCC3C2c2cc(OC)ccc2OC)cc1` (centres undefined), the AC50 was 0.0251 µM [rising, full curve, poor fit].
With `COC(=O)c1ccc2c(=O)n(Cc3ccco3)c(SCC(=O)Nc3ccc(C)c(Cl)c3)nc2c1` the AC50 was 25.1 µM [rising, single point].
For `O=C(CNS(=O)(=O)c1ccc2ccccc2c1)OCC(=O)c1ccc(Br)s1`, the AC50 was 12.6 µM [rising, single point].
For `COc1ccc(CNC(=O)c2c(O)c3ccccc3n(C)c2=O)cc1OC`, the AC50 was 31.6 µM [rising, single point].
With `CCOC(=O)c1c(-c2cccc(C)c2)csc1NC(=O)C1CC=CCC1C(=O)O` (centres undefined) the AC50 was 31.6 µM [falling, single point].
For `COc1ccc(OC)c(NC(=O)Cn2cc(C(=O)c3ccco3)c3ccccc32)c1`, the AC50 was 6.31 µM [falling, single point].
In the case of `COc1ccc(Oc2nccc(-c3ccc(F)cc3)c2C#N)cc1`, the AC50 is reported as 31.6 µM [rising, single point].
In the case of `CCCC(=O)N(Cc1cc2cccc(C)c2[nH]c1=O)c1ccccc1OC`, the AC50 is reported as 1 µM [falling, full curve, poor fit].
For `CCN(C(=O)COC(=O)c1cc2ccccc2cc1O)C1CCS(=O)(=O)C1` (centres undefined), the AC50 was 0.00794 µM [rising, full curve, poor fit].
With `Cc1ccc(N(C(=O)Cn2nnc3ccccc32)C(C(=O)NCc2ccco2)c2cccnc2)cc1` (centres undefined) the AC50 was 3.16 µM [falling, single point].
In the case of `COC(=O)C1=C(N)Oc2cc(C)n(Cc3cccnc3)c(=O)c2C1c1ccccc1OC` (centres undefined), the AC50 is reported as 10 µM [falling, single point].
For `O=C(O)C1CCCCC1C(=O)N1CC=C(c2ccccc2)CC1` (centres undefined), the AC50 was 0.158 µM [rising, full curve, poor fit].
For `CCCONC(=O)Nc1ccccc1[N+](=O)[O-]`, the AC50 was 0.0708 µM [rising, full curve, poor fit].
In the case of `COc1cccc(NC(=O)Cn2cc(C(=O)C3CCCCC3)c3ccccc32)c1`, the AC50 is reported as 35.5 µM [rising, single point].
For `CCOC(=O)C1CCCN(CC(O)COc2ccc(OC)cc2C(C)(C)C)C1` (centres undefined), the AC50 was 5.01 µM [rising, single point].
With `COc1cccc(NC(=O)c2sc3nc(N4CCOCC4)c4c(c3c2N)CC(C)(C)OC4)c1` the AC50 was 35.5 µM [rising, single point].
With `O=C(Nc1nnc(C23CC4CC(CC(C4)C2)C3)s1)c1ccc(N2C(=O)CCC2=O)cc1` the AC50 was 0.158 µM [falling, full curve, poor fit].
With `O=C(O)CCC(=O)N1CCN(c2nc(-c3ccccc3Cl)c3cc(Br)ccc3n2)CC1` the AC50 was 31.6 µM [rising, single point].
For `COc1ccc(CCNC(=O)CSc2nc3cc(Cl)ccc3o2)cc1OC`, the AC50 was 31.6 µM [falling, single point].
For `O=C(C1CC1)N1CCc2cc(Br)cc(S(=O)(=O)NCc3ccccn3)c21`, the AC50 was 1.12 µM [falling, full curve, poor fit].
With `CC(NC(=O)C(Cc1ccccc1)NC(=O)c1ccccc1)C(=O)O` (centres undefined) the AC50 was 0.794 µM [falling, full curve, poor fit].
With `CC(=O)N1CCc2c(sc(NC(=O)c3ccc4c(c3)OCCO4)c2C#N)C1` the AC50 was 31.6 µM [rising, single point].
With `Cc1ccc(-c2nc(-c3cccnc3)no2)cc1` the AC50 was 1 µM [falling, single point].
For `COc1ccc(Cl)cc1NC(=O)CC(C)=O`, the AC50 was 0.398 µM [rising, full curve, poor fit].
In the case of `COc1cccc(-c2csc(N3CCN(C(=S)Nc4ccccc4Cl)CC3)n2)c1`, the AC50 is reported as 6.31 µM [falling, partial curve, poor fit].
With `COc1cc(/C=N/Nc2ccc3ccccc3c2)ccc1OC(=O)c1ccco1` the AC50 was 5.62 µM [rising, single point].
For `Cc1ccc(S(=O)(=O)N2CCN(CC(=O)N/N=C\c3ccc(Cl)c([N+](=O)[O-])c3)CC2)cc1`, the AC50 was 35.5 µM [rising, partial curve].
In the case of `Cc1cc(C2C(=O)CC(=O)CC2c2ccccc2)on1` (centres undefined), the AC50 is reported as 31.6 µM [falling, single point].
For `COc1ccccc1OCC(=O)NC1CCCCCC1`, the AC50 was 0.02 µM [rising, full curve, poor fit].
In the case of `Cc1cc(=O)oc2c(CN(C)Cc3ccccc3)c(O)ccc12`, the AC50 is reported as 20 µM [rising, single point].

— PubChem BioAssay AID901 (National Center for Advancing Translational Sciences (NCATS), 2007)
